Data taken from patent publication US12161719B2, “Method of enhancing the antimicrobial action of systemically administered antibiotics” (Koite Health Oy, priority 2019, dated 2024).
At least one structure is not confirmed: it was looked up by name or label, or the drawing left a doubt.

Legend:
[1] = system: planktonic Streptococcus mutans; assay: Planktonic bacteria test, light activation of doxycycline; assay type: cell-based; settings: doxycycline without light
From the text: FIG. 2 is a bar chart showing bacteria growth of Streptococcus mutans for four different treatments, illustrating the effect of light activation of doxycycline against planktonic Streptococcus mutans; FIG. 2 is a bar chart showing light activation of doxycycline at 405 nm in a planktonic bacteria test. […] 100 J of antibacterial blue light had minor reduction in CFU compared to non-exposed control.

[2] = system: Streptococcus mutans 4 day biofilm; assay: 4-day biofilm effectivity test, colony formation (CFU); assay type: cell-based
From the text: FIG. 3 is a bar chart showing a comparison of the doxycycline effect with light excitations of 405 nm, dual-light (810 nm & 405 nm) and 370 nm to Streptococcus mutans colony formation in 4 day biofilm model; FIG. 4 is a bar chart showing the doxycycline effect against Streptococcus mutans 4 day biofilm for light excitation using a combination of light of 405 nm and 810 nm (“dual-light”) together with an ICG sensitizer, compared with light of 810 nm together with an ICG sensitizer (“doxy+aPDT”) and with 405 nm light without ICG sensitizer (“405”). A control of doxycycline is given as a reference; and […] is a bar chart showing a comparison of doxycycline effect with light excitations of […] on Streptococcus mutans colony formation in a 4-day biofilm effectivity test. FIG. 4 gives the CFU:s for Streptococcus mutans colonies on petri dishes after 4-day treatments, repeated 6 times with identical treatment and growth parameters, for four series of tests. The first (non-existent) bar represents the CFU:s for S. mutans colonies doxycycline which had been treated with doxycycline (30 μg) and dual light of 405 nm and 810 nm together with Indocyanine Green. The energy intensity of the light was 100 J/cm^2. The second bar represents the CFU:s for S. mutans colonies which had been treated with doxycycline and light of 405 nm (having an energy intensity of 100 J/cm^2) together with Indocyanine Green. The third bar represents the CFU:s for S. mutans colonies which had been treated with doxycycline and light of 405 nm (100 J/cm^2).

SMILES: C[C@H]1c2cccc(O)c2C(=O)C2=C(O)[C@]3(O)C(=O)C(C(N)=O)=C(O)[C@@H](N(C)C)[C@@H]3[C@@H](O)[C@@H]21 [doxycycline]
- antibacterial effect in words [1]: bacteria static
- CFU of S. mutans colonies, in words ([2]; doxycycline 30 μg, dual light 405 nm and 810 nm with Indocyanine Green, 100 J/cm^2, 4-day treatments): particularly good results
- effectiveness of light excited doxycycline versus dark control ([2]; light excitation 405 nm and 370 nm, 4-day biofilm): substantially more effective than dark control
- CFU of S. mutans colonies, light treatments versus control (doxycycline as such) ([2]; light treatments 100 J/cm^2, with or without Indocyanine Green, 4-day treatments): better than for the control
